Reference: paper doi:10.1101/2022.12.23.521717
Results are given in words; binding and its absence hold for the method and conditions named. Binding seen in cells or lysates may run through a third protein. Some binding calls cover weakened binding; strength is not graded here. For part of these data: Tags and fused reporters may be left off the sequences shown.

Protein sequences, listed by entry. Tags and fused reporters are not part of them. Lines headed by an entry give the natural chain unless they say otherwise; changes in a name come on top.
UniProt O15169, whole entry: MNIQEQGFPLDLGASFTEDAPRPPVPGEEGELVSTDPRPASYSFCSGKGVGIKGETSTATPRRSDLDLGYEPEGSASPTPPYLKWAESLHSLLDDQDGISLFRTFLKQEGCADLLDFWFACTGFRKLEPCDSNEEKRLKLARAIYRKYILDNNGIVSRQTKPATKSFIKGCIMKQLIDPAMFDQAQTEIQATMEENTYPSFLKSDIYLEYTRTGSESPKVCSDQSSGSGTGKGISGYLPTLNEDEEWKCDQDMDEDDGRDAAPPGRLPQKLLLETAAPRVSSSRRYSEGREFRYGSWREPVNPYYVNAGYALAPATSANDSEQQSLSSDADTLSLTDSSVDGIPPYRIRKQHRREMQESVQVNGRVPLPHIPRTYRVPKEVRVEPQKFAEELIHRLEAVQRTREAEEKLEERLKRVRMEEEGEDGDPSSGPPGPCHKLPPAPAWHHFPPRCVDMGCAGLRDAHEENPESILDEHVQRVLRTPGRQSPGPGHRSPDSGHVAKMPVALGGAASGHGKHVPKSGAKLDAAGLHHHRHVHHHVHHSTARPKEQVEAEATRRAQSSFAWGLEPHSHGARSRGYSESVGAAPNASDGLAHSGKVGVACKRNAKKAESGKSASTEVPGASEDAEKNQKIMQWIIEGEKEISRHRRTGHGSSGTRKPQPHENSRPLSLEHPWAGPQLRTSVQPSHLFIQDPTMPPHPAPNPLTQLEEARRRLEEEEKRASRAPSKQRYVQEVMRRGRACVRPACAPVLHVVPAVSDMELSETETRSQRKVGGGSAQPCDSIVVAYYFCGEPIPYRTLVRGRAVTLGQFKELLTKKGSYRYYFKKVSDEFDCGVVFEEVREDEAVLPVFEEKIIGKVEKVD
UniProt P35222, whole entry: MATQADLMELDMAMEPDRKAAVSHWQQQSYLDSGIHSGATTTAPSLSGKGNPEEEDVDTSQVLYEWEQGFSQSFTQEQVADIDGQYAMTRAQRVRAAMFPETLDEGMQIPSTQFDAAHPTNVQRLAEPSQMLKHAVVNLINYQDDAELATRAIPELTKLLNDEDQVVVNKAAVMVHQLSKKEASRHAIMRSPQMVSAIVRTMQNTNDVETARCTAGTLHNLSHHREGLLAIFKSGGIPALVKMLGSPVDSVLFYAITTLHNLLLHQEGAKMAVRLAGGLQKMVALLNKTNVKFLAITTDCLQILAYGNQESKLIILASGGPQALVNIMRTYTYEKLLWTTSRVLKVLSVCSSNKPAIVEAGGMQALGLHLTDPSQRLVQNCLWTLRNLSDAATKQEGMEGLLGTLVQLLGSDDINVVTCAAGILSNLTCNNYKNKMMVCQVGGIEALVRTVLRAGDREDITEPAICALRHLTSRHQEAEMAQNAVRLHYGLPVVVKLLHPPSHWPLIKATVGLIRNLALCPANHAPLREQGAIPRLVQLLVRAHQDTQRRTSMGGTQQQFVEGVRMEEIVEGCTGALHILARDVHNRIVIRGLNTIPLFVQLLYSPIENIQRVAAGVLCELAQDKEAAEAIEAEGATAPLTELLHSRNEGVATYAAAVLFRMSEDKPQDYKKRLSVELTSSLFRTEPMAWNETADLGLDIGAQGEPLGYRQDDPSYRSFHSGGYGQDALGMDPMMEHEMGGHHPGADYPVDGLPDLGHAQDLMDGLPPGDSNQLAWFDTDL

These substances were tested against T1, Flag-tagged wild-type Nek10 (human) (UniProt Q6ZWH5) (assay: co-IP).
T1 sequence: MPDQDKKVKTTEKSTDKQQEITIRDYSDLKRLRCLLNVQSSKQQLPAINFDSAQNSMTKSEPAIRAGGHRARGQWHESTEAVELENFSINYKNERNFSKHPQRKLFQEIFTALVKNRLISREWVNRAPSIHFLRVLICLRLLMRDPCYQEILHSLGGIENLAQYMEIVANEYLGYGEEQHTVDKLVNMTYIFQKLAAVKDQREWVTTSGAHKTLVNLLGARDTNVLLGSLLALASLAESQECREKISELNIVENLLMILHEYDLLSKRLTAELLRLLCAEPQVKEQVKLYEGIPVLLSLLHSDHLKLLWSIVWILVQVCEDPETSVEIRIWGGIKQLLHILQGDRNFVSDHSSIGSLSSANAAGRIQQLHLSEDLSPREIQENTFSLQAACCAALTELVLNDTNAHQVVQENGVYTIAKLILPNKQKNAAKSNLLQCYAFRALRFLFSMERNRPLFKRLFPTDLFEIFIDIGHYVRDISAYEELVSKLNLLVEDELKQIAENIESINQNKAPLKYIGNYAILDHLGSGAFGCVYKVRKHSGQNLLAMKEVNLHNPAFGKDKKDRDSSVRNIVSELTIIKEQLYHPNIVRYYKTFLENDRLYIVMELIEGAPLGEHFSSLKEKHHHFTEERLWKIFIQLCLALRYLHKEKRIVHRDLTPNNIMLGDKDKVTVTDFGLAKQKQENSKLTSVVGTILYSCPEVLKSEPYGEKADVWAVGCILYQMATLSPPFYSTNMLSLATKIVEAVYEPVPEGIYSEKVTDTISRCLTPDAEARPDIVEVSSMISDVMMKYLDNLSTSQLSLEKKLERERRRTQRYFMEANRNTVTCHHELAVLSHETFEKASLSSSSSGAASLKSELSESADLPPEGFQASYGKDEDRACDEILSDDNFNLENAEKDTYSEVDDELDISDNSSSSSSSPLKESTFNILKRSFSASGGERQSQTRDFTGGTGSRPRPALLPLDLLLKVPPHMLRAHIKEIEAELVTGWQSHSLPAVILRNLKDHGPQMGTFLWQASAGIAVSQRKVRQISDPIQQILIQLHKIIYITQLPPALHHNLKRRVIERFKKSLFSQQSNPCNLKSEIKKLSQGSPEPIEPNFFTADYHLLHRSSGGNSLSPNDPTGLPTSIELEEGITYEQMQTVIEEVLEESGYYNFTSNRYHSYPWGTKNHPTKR

Row | Substance | binding
1 | Myc-tagged Axin (from UniProt O15169 1-862) | binds weakly
2 | N-terminal HA-tagged wild-type β-catenin (from UniProt P35222 1-781) | no binding

Each substance was assayed against Myc-tagged Axin (human (cDNA from HT29 cells)) (UniProt O15169) (assay: co-IP).

Row | Substance | binding
3 | N-terminal HA-tagged Y30F mutant β-catenin (from UniProt P35222 1-781) | binds
4 | N-terminal HA-tagged wild-type β-catenin (from UniProt P35222 1-781) | binds
5 | Ser45 phosphorylated β-catenin (endogenous, HEK293T cells) (from UniProt P35222 1-781) | binds
6 | β-catenin (endogenous, HEK293T cells) (from UniProt P35222 1-781) | binds
